# From patent US9598716B2, “Destructible surfactants and uses thereof” (Waters Technologies Corporation, priority 2002, dated 2017)
# Test system: trypsin
# Experiment: Protein digestion by trypsin with or without ALS (MALDI-TOF, LC/MS)
# Assay type: biochemical
# Settings: for Peptides found after trypsin digestion, With ALS (0.1%): not reduced, MALDI-TOF 900-3000 amu
substance,measurement,setting,value
"sodium 4-[(2-methyl-2 undecyl-1,3-dioxolan-4-yl)methyl]-1-propanesulfonate [ALS]","Peptides found after trypsin digestion, With ALS (0.1%)","BSA (66K), easy, minutes, w/o ALS 16 peptides + intact protein",21 peptides
same,"Peptides found after trypsin digestion, With ALS (0.1%)","Bacteriorhodopsin (26K), very difficult, overnight, w/o ALS 1 peptide (weak signal) + intact protein",3 peptides
same,"Peptides found after trypsin digestion, With ALS (0.1%)","Lysozyme (16K), easy, minutes, w/o ALS 2 peptides + intact protein",6 peptides
same,"Peptides found after trypsin digestion, With ALS (0.1%)","Myogiobin (17K), moderate, minutes, w/o ALS 0 peptide + intact protein",12 peptides
same,"Peptides found after trypsin digestion, With ALS (0.1%)","Ovalbumine (43K), moderate, minutes, w/o ALS 0 peptides + intact protein",2 peptides
same,"Peptides found after trypsin digestion, With ALS (0.1%)","Ubiqutin (8K), difficult, minutes, w/o ALS 0 peptide + intact protein",9 peptides
same,Time to complete tryptic digestion of myoglobin,"myoglobin solubilized with 0.1% ALS, LC/MS TIC, without ALS majority undigested after 9 hrs",≤ 5 min
